“And” between values parts separate entries of the source, which are not always exact repeats. Equal entries are not always repeated. In all, about 300,000 compounds went through this assay and about 3,700 (1.2%) were called active. Inconclusive means that the source gave no clear call. Such entries were picked first, then a sample of the others. The call rests on the fitted dose curve; tested in HEK293 cells. Potencies beside an inconclusive call are fits to weak or partial responses and may not hold up.
Test: qHTS for Inhibitors of binding or entry into cells for Lassa Virus; further: nearly all actives have a fitted effect of over 50% in size
Conditions: Lassa virus pseudotype entry inhibition, cell reporter; series mostly up to 37.9 µM
Potency means the concentration at half of the fitted maximal effect.

Row | Structure (SMILES) | Potency
1 | CC(C)(C)OC(=O)N1CCC(c2c(C(=O)N3CCc4ccccc4C3)cnn2-c2ccc(F)cc2)CC1 | inconclusive: 1 µM [inhibitor, partial curve, poor fit]
2 | COc1ccc(C(C)C)cc1S(=O)(=O)NCCc1c(C)[nH]c2ccc(C)cc12 | inactive
3 | O=C(NCc1ccc2c(c1)OCO2)C(=O)NCC1OCCN1S(=O)(=O)c1ccc(Br)cc1 (stereo not given) | inconclusive: 7.94 µM [inhibitor, partial curve, poor fit]
4 | CCc1ccc2nc(N(CCCN(C)C)C(=O)c3ccc(C(=O)c4ccccc4)cc3)sc2c1 | inconclusive: 8.91 µM [inhibitor, partial curve, poor fit]
5 | CN(Cc1ccc(OC(F)F)cc1)C(=O)c1cccc(S(=O)(=O)N2CCN(Cc3ccccc3)CC2)c1 | inconclusive: 12.6 µM [inhibitor, single point]
6 | O=C(OCc1ccccc1)c1ccc(NCc2cc(O)ccc2O)cc1 | active: 2.51 µM
7 | CCn1c(SCC(=O)N2CCCCCC2)nc2c([nH]c3ccccc32)c1=O | inconclusive: 6.31 µM [activator, single point]
8 | CCOc1ccccc1-c1c2cc(O)c(=O)cc-2oc2cc(O)c(O)cc12 | inconclusive: 11.2 µM [inhibitor, partial curve]
9 | CC1Cc2ccccc2N1C(=O)Cn1nnc(-c2ccccc2NC(=O)C2CCC2)n1 (stereo not given) | inconclusive: 29.1 µM [inhibitor, single point]
10 | Nc1nc(NCCCN2CCOCC2)nc(Nc2cccc(F)c2)c1[N+](=O)[O-] | inactive
11 | O=C(COc1ccc(S(=O)(=O)N2CCOCC2)cc1)NCCN1CCOCC1 | inactive
12 | CC(=O)NC12CC3CC(C1)CC(C(=O)Nc1nc4ccc(F)cc4s1)(C3)C2 | inconclusive: 15.8 µM [inhibitor, single point]
13 | CCN(CC)S(=O)(=O)c1cc(-c2onc(C)c2C)ccc1OC | inactive
14 | COc1ccccc1-c1noc(-c2ccco2)n1 | inconclusive: 35.5 µM [inhibitor, single point]
15 | Cc1ccc(-c2noc(-c3nnn(CC(=O)Nc4cc(C)cc(C)c4)c3N)n2)cc1 | inactive
16 | COc1ccc(C(=O)N(Cc2cc(OC)c(OC)c(OC)c2)CC2CCCO2)cc1 (stereo not given) | inconclusive: 1.12 µM [inhibitor, full curve, poor fit]
17 | COc1ccc(CCN2C(=O)CSC2=Nc2ccc(C)cc2C)cc1OC | inconclusive: 15.8 µM [inhibitor, single point]
18 | COc1ccc(-c2cc(-c3ccccc3)nc(SCC(=O)CC(=O)OC(C)C)c2C#N)cc1 | inactive
19 | COc1ccc(NC(=O)CN(C)C(=O)c2cc(-c3cccs3)nn2-c2ccccc2)cc1 | inconclusive: 0.562 µM [inhibitor, full curve]
20 | C/C(=N\NC(=O)c1cccc(S(=O)(=O)Nc2cccc(Cl)c2)c1)c1cccs1 | inconclusive: 1 µM [inhibitor, full curve, poor fit]
21 | Cc1ccc(-c2onc3ccc(C4(C)OCCO4)cc23)cc1 | inconclusive: 4.61 µM [inhibitor, partial curve, poor fit]
22 | O=C(CSc1ccc(Cl)cc1)NNC(=O)c1ccncc1 | inactive

Exported in markdown: part of the list above

| Row | Structure (SMILES) | Potency |
| --- | --- | --- |
| 16 | COc1ccc(C(=O)N(Cc2cc(OC)c(OC)c(OC)c2)CC2CCCO2)cc1 (stereo not given) | inconclusive: 1.12 µM [inhibitor, full curve, poor fit] |
| 17 | COc1ccc(CCN2C(=O)CSC2=Nc2ccc(C)cc2C)cc1OC | inconclusive: 15.8 µM [inhibitor, single point] |

Later entries

Row | Structure (SMILES) | Potency
23 | CNC(=O)NC(=O)Cn1nc2n(c1=O)-c1ccccc1SC2 | inconclusive: 2.24 µM [activator, partial curve, poor fit]
24 | COc1ccccc1CN1CCNC(=O)C1CC(=O)N(C)CC1CCOCC1 (stereo not given) | inconclusive: 4.47 µM [activator, full curve, poor fit]
25 | CC(NC(=O)CCSCc1ccccc1F)c1ccccc1 (stereo not given) | inactive and inconclusive: 22.4 µM [activator, partial curve, poor fit]
26 | Cc1nc2nc(SCC(=O)NCc3ccco3)nn2c(C)c1Cc1ccccc1 | inconclusive: 22.4 µM [inhibitor, single point]
27 | COc1ccc(OC)c(CNC(=O)Cc2ccc(NC(=O)N3CCCCc4ccccc43)cc2)c1 | inconclusive: 14.1 µM [inhibitor, partial curve, poor fit]
28 | Cc1ccc(C)c(NC(=S)N2CCC(NC(=O)C3CCCCC3)CC2)c1 | inconclusive: 3.98 µM [inhibitor, single point]
29 | CCn1c(CSc2nc3ccccc3s2)nnc1SCC(=O)OC(C)(C)C | inconclusive: 29.1 µM [inhibitor, single point]
30 | c1ccc2c3c([nH]c2c1)-c1[nH]ncc1CC3 | inconclusive: 4.61 µM [activator, partial curve, poor fit]
31 | CCn1c2ccccc2c2cc(NC(=O)c3ccc(C)c([N+](=O)[O-])c3)ccc21 | inconclusive: 2.82 µM [inhibitor, partial curve, poor fit]
32 | CCN(CCCNC(=O)c1cc2c(=O)n(CC)c3ccccc3c2s1)c1ccccc1 | inactive
33 | COc1cc2[nH]c3c(OC)ncnc3c2cc1OC | inactive
34 | CCOC(=O)c1c(C)[nH]c(C(=O)COC(=O)/C=C/c2ccc(OC(F)F)cc2)c1C | inactive
35 | CC(C)Cc1csc(NC(=O)c2ccc(F)cc2)c1C(=O)O | inconclusive: 23.1 µM [inhibitor, partial curve, poor fit]
36 | O=C(C1CC(=O)N(c2ccc(Cl)cc2)C1)N1CCN(Cc2ccc3c(c2)OCO3)CC1 (stereo not given) | inconclusive: 35.5 µM [inhibitor, single point]
37 | Cc1ccc(N(C)C(=O)c2cnc(N3CCOCC3)c3ccccc23)cc1C | inconclusive: 5.62 µM [inhibitor, full curve]
38 | CC(C)C(C(=O)Nc1nccs1)c1ccc(Cl)cc1 (stereo not given) | inactive
39 | COc1ccc(-n2cnnc2SCC(=O)c2cc(C)n(Cc3cccs3)c2C)cc1 | inconclusive: 10 µM [inhibitor, partial curve]
40 | CC(C)Cn1[nH]c2c3c(ccc2c1=O)C(=O)c1ccccc1C3=O | inconclusive: 8.91 µM [inhibitor, partial curve, poor fit]
41 | CNCc1c(OCc2ccccc2F)ccc2ccccc12 | inconclusive: 17.8 µM [inhibitor, single point]
42 | Cc1ccc2cc(CN(CCCO)S(=O)(=O)c3cccc4nsnc34)c(=O)[nH]c2c1 | inconclusive: 14.6 µM [inhibitor, partial curve, poor fit]
43 | O=C1CN=C(c2ccccc2Cl)c2cc(Br)ccc2N1 | inconclusive: 35.5 µM [activator, single point]
44 | COc1ccc(NC(=O)CSc2ncnc3c2cnn3CCc2ccccc2)cc1 | active: 11.2 µM

Row | Structure (SMILES) | Potency
45 | O=C1c2ccccc2C(=O)N1CCCn1nnc(-c2ccc(N3CCOCC3)cc2)n1 | inconclusive: 13 µM [activator, partial curve, poor fit]
46 | CCN(CC)CCOc1ncnc2c1oc1ccccc12 | inactive
47 | CCc1ccc(C(=O)c2cn(CC(=O)Nc3ccc(OC)cc3OC)c3ccc(CC)cc3c2=O)cc1 | inconclusive: 3.98 µM [inhibitor, partial curve, poor fit]
48 | Cc1ccc(O)c(-c2cc(-c3cccc(F)c3)n[nH]2)c1 | inconclusive: 20.6 µM [inhibitor, single point]
49 | CCC(C)(C)c1ccc(Oc2ccc(N)cc2)cc1 | inconclusive: 2 µM [inhibitor, partial curve, poor fit]
50 | CCn1c(CNc2ccc(Cl)cc2)nnc1SCc1ccc(Cl)cc1 | inconclusive: 29.1 µM [inhibitor, single point]
51 | Cc1ccc(-n2nnnc2-c2cnc(-c3cccnc3)nc2C(F)(F)F)cc1 | inconclusive: 11.6 µM [inhibitor, single point]
52 | CC(=O)c1ccc(NC(=O)C2CCN(S(=O)(=O)c3ccc4c(c3)CCCN4C(=O)C3CCC3)CC2)cc1 | inactive
53 | Cc1noc(NS(=O)(=O)c2ccc(N/C=C\C(=O)c3cccc4ccccc34)cc2)c1C | inactive
54 | COc1ccccc1OCC(=O)N(Cc1ccc(N(C)C)cc1)CC1CCCO1 (stereo not given) | inconclusive: 7.94 µM [inhibitor, partial curve, poor fit]
55 | CN(C)c1nc(=NCc2cccs2)ss1 | inconclusive: 10 µM [inhibitor, partial curve, poor fit]
56 | N/C(CS(=O)(=O)c1ccccn1)=N\OC(=O)c1ccccc1Cl | inactive
57 | CCCCCCN=CC1=C(O)C(C(=O)OC)C(C)(C)CC1=O (stereo not given) | inconclusive: 17.8 µM [inhibitor, single point]
58 | COc1ccc(Nc2ccc3cc(S(=O)(=O)N4CCCC4)ccc3n2)cc1Cl | inconclusive: 5.01 µM [inhibitor, full curve, poor fit]
59 | COc1ccc(N2C(=O)CC(SCC(=O)O)C2=O)cc1 (stereo not given) | inconclusive: 0.013 µM [inhibitor, full curve, poor fit]
60 | Cc1ccc(C)c(OCC(=O)O/N=C(\N)c2ccccn2)c1 | inconclusive: 35.5 µM [inhibitor, single point]
61 | Cc1sc(NC(=O)CN(C(=O)c2ccccc2F)C2CCCC2)c(C(N)=O)c1C | inconclusive: 3.55 µM [inhibitor, single point]
62 | O=C(CN1Cc2ccccc2C1=O)Nc1cc(F)ccc1F | inactive
63 | CCc1ccc(CN(C)C(=O)c2cc(COc3ccc(OC)cc3Cl)on2)nc1 | inconclusive: 35.5 µM [inhibitor, single point]
64 | COc1cc(C(=O)NCC(=O)Nc2ccc(F)c(F)c2)ccc1OCC(=O)N1CCOCC1 | inactive
65 | CC(Oc1ccc(Cl)cc1)C(=O)NCCN1C(=O)S/C(=C\c2cccnc2)C1=O (stereo not given) | inconclusive: 10 µM [inhibitor, partial curve, poor fit]
